Some results were stated once for a whole list of compounds, not compound by compound.
System: spontaneously hypertensive rats (SHRs)
Assay: Histological examination (HE) of heart, liver, lung and kidney of SHRs
Format: in vivo, rat
Details: 20 mg/kg
Experimental: The procedure of physiological signals recording and blood tests used in this example or the following examples is as follows. The rats were anesthetized with Zoletil 50 (30 mg/kg, intraperitoneal injection) and then attached to a physiological signal recording device. The Y16 and Rhosin were administered to them by intravenous injection. Their electrocardiography (ECG), heart rate (HR), and blood pressure (BP) measurements were taken for 90 minutes. After observing and recording the physiological signals, blood was drawn from the rats in an appropriate test tube and stored for subsequent tests for complete blood cell count, liver function and renal function. The rats were then sacrificed. Their heart, lungs, liver, and kidneys were removed and stored in paraformaldehyde for further histological examinations.
The procedure of histological examination used in this example is as follows. The tissues were fixed in 4% paraformaldehyde overnight and then embedded in paraffin for histological examination. The transverse sections (4 μm) were incubated at 75˜85° C. for 10 minutes, followed by stained with hematoxylin/eosin (HE), and examined under a light microscope. Severity of lesions was graded according to the methods described by Shackelford et al. (2002). Degree of lesions stained with HE was graded from one to five depending on severity: 1=minimal (<1%); 2=slight (1-25%); 3=moderate (26-50%); 4=moderate/severe (51-75%); 5=severe/high (76-100%).

With Cc1cccc(COc2cccc(/C=C3\C(=O)NN(c4ccccc4)C3=O)c2)c1 [Y16, (E)-4-(3-(3-methylbenzyloxy)benzylidene)-1-phenylpyrazolidine-3,5-dione] the “heart lesion grade (cardiomyopathy)” value (control grade=1) was 2 (2=slight (1-25%)), the liver lesion grade (control grade=1) was 1 (1=minimal (<1%)) and the lung lesion grade (control grade=1) was 1 (1=minimal (<1%)). For the same compound, the kidney lesion grade (control grade=2) was 1 (1=minimal (<1%)).

From US11911377B2, “Method for treating hypertension by using compound” (Fu Jen Catholic University, priority 2021, dated 2024)
